Test results published in article PMC10202413.
The exact form of at least one protein or probe is not confirmed. At least one result comes from cells or an extract, where the contact may be indirect.

Assays:
[1] = target: protein tyrosine kinase 7 (PTK-7) on CEM cells (UniProt Q13308); assay: flow cytometry, cell binding; settings: 250 nM aptamer, 5 mM Mg2+, Whole cells washed in D-PBS with 4.5 g/L glucose and 5 mM MgCl2, 300,000 cells in 200 ul binding buffer (composition and pH not stated), on ice 30 min, protein on the cell surface, single-stranded DNA
[2] = target: T1, protein tyrosine kinase 7 (PTK-7) on HCT-116 cells (UniProt Q13308); assay: radioligand cell binding (gamma counter); settings: 4 C, 4 h; 5' amino coupled to p-SCN-Bn-NOTA, 68Ga chelated; Whole cells washed in D-PBS with 4.5 g/L glucose and 5 mM MgCl2; 300,000 cells in 200 ul binding buffer (composition and pH not stated), on ice 30 min; protein on the cell surface; label: 68Ga; single-stranded DNA
T1 sequence: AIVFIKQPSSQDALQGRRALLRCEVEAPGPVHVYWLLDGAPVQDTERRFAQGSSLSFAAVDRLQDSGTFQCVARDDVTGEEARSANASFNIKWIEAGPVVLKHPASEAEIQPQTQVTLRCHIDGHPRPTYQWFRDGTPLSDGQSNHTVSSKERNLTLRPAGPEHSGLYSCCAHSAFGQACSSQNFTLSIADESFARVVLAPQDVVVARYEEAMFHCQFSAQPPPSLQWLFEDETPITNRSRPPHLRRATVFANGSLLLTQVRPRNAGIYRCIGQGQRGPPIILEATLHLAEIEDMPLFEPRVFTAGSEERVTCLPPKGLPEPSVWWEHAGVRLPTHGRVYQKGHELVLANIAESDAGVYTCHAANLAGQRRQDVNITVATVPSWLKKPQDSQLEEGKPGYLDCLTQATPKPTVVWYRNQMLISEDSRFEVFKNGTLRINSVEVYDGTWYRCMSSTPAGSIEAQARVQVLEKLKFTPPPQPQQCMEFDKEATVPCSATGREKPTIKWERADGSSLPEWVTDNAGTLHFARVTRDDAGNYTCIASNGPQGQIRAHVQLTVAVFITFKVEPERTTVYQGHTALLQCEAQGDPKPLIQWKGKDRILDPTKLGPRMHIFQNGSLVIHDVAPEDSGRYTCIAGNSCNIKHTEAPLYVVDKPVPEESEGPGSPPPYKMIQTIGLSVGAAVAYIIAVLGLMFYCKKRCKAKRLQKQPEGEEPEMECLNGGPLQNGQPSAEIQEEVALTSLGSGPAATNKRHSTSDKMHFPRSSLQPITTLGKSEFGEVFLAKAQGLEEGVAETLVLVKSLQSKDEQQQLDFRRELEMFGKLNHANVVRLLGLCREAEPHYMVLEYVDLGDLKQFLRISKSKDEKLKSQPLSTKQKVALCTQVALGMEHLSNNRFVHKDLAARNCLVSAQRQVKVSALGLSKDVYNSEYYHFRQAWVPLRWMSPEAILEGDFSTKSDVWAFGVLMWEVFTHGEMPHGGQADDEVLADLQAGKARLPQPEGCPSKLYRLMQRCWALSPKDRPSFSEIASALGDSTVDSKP

ATCTAACTGCTGCGCCGCCGGGAAAATACTGTACGGTTAGA [NOTA-SGC8]
binding result ([1]; 5' amino coupled to p-SCN-Bn-NOTA): binds

ATCTAACTGCTGCGCCGCCGGGAAAATACTGTACGGTTAGA [68Ga[Ga]-NOTA-SGC8]
binding result [2]: binds

ATCTAACTGCTGCGCCGCCGGGAAAATACTGTACGGTTAGA [SGC8]
binding result ([1]; label: 5' Cy5): binds
